Reference: publication PMC9932153
These are yes or no findings as the source states them, for the method shown. In cells and extracts the contact can be indirect. Some results given as binding are weak or reduced against the parent protein; the word gives no strength.

Chains of the proteins cited; added tags and fusions are not shown.
UniProt Q9ULH1: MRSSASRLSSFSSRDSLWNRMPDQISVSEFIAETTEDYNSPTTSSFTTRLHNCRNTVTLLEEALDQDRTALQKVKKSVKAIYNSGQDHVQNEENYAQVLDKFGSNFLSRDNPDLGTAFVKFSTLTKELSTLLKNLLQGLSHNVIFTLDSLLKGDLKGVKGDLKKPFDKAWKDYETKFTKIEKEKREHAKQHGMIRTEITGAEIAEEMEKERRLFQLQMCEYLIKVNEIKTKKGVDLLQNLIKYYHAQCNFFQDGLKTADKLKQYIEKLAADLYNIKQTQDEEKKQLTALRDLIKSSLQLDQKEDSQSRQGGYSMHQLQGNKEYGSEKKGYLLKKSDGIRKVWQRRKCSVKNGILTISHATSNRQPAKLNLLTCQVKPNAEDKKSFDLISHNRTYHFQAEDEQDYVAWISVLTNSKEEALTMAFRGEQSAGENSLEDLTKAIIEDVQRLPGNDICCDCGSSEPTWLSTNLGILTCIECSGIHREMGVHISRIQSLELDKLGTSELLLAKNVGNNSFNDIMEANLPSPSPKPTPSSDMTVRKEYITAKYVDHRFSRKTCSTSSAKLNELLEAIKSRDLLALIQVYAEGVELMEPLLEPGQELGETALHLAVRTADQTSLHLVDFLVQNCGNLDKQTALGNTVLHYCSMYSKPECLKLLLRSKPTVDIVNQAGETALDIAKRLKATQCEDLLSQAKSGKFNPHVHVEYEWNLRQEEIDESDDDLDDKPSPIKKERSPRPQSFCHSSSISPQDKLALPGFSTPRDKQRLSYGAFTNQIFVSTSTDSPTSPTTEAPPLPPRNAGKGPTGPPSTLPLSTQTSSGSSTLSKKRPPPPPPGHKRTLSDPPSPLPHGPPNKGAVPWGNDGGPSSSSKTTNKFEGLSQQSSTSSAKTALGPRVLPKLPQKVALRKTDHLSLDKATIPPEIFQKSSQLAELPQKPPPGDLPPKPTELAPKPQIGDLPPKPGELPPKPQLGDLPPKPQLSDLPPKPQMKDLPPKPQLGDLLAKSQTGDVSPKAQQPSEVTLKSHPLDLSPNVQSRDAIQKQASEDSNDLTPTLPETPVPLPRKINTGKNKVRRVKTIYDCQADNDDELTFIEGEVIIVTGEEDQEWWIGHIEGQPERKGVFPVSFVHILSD
UniProt P46940: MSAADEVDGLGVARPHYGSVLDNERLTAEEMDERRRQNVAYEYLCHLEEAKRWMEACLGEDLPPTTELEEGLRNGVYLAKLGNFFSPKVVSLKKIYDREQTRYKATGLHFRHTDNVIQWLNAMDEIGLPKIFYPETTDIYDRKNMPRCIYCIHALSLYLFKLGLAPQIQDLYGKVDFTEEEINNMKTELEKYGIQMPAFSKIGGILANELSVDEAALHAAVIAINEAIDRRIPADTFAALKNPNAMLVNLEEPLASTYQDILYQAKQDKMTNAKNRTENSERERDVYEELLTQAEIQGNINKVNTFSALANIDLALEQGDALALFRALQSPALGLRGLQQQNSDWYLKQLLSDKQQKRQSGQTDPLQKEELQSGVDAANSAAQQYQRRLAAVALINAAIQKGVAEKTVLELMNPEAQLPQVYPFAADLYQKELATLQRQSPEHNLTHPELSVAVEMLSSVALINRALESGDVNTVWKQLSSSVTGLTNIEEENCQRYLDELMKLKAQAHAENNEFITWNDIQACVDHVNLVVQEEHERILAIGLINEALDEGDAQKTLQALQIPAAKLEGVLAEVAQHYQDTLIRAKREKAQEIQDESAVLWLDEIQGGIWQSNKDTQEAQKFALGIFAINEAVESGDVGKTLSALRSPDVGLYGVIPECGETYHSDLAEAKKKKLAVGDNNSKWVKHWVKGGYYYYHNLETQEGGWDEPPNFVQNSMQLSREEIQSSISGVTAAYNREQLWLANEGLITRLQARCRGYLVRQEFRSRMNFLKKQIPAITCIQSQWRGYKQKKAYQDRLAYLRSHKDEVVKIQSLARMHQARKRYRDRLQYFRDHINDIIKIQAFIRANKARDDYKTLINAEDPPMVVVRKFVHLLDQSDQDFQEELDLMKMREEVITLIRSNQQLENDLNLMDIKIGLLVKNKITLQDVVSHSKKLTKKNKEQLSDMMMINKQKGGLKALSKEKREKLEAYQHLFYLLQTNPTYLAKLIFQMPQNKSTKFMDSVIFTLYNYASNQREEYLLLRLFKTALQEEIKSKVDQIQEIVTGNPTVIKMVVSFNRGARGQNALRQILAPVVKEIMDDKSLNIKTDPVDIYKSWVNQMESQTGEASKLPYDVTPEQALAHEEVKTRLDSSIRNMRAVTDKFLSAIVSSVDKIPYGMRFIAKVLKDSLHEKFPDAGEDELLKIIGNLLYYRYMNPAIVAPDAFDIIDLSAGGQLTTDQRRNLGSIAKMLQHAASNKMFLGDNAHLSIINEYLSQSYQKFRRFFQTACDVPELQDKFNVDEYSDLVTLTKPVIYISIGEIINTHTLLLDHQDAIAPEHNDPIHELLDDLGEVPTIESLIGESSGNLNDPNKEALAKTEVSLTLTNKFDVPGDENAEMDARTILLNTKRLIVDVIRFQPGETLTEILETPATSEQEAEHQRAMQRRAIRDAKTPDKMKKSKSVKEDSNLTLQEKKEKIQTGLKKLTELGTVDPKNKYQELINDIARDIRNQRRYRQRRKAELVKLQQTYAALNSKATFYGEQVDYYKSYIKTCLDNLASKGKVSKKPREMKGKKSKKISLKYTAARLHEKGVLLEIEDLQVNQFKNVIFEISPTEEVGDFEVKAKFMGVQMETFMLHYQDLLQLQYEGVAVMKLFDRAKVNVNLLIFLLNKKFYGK

Assays:
[1] = target: HA-tagged ASAP1 (UniProt Q9ULH1); assay: co-IP; SGC-7901 cells transfected with pcDNA3.1-ASAP1-HA or pcDNA3.1; anti-HA antibody for IP; NP-40 lysis, beads washed with PBST; immunoblot
[2] = target: ASAP1 (Arf GTP-activating protein), endogenous (human (endogenous in SGC-7901)) (UniProt Q9ULH1); assay: co-IP; endogenous proteins of SGC-7901 cells; anti-ASAP1 antibody for IP, normal mouse IgG as control; NP-40 lysis, beads washed with PBST; immunoblot

For “IQGAP1 (Ras GTPase-activating-like protein), endogenous (from UniProt P46940 1-1657)”, the binding [1] was “binds” and the binding [2] was “binds”.
